From US20070203654A1, “Measuring apparatus, and measuring method” (FUJI PHOTO FILM CO., LTD., priority 2005, published 2007)

Assay: SPR measurement of amount of non-specific adsorption on attachment film 1
Format: binding
Method: Next, preparation of an attachment film on the dielectric block which has been explained in the above embodiment, and measurement of the amount of non-specific adsorption of a compound on the attachment film prepared will be described. The preparation of an attachment film, and the measurement of the amount of non-specific adsorption was carried out using a commercially available surface plasmon sensor. […] It is obvious that, depending upon the structure of the compound, the amount of non-specific adsorption on the attachment film varies.

For `NS(=O)(=O)c1cc2c(cc1Cl)NCNS2(=O)=O` [Compound C], the “Amount of non-specific adsorption on attachment film 1” value (0.01 mM in PBS buffer (10 mM sodium phosphate, 150 mM NaCl, 0.005% Tween20, pH 7.4)/DMSO 5%, flown 3 min, then buffer 3 min) was 0 RU and the “Amount of non-specific adsorption on attachment film” value (attachment film 1, 0.03 mM in PBS buffer (10 mM sodium phosphate, 150 mM NaCl, pH 7.4)/DMSO 5%) was 0 RU.
